PubChem BioAssay AID1259405 – NCATS | 2018
Purpose: 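Silenced genes that increase secreted GFP made by CHO cells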 (primary screen). System: Chinese hamster CHO-K1 ovary cells with stable secreted eGFP expression. Reagent: single siRNA against mouse genes, 0.8 pmol siRNA per well (2 µl of 400 nM stock). Timing: 3 days. Measured: 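Percent of the per-plate non-targeting control median for intracellular GFP per well by laser scanning cytometry and for cell viability by ATP luminescence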. Direction: GFP, % of control: higher = more GFP per well, higher productivity; viability (ATP), % of control: higher = more viable cells (more ATP). Rule for the call: 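a knock-down is called active if GFP reaches 120% or more of non-targeting control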.
Shown is one part, drawn at random, of about 50,000 reagents. Over the whole deposit, about 4,000 (8%) were called active. 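Mouse siRNA library applied to hamster cells; one well for each siRNA.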 A number with no mark means an inactive call. Reagents against one gene are numbered here.

target gene | siRNA no. | GFP, % of control | viability (ATP), % of control
Dgkz | 1 | 59.8 | 81
B630019K06Rik | 1 | 76.6 | 56.5
B630019K06Rik | 2 | 78.6 | 84.6
B630019K06Rik | 3 | 75.9 | 44.1
Or4k6 | 1 | 55.2 | 90.3
Or4k6 | 2 | 93.7 | 88.9
Or4k6 | 3 | 99.6 | 61.2
Slc5a7 | 1 | 88.1 | 86.6
Slc5a7 | 2 | 63.2 | 64
Slc5a7 | 3 | 94.2 | 88.5
Pla2g1b | 1 | 70.3 | 49.3
Pla2g1b | 2 | 55.9 | 51.8
Pla2g1b | 3 | 73 | 74.3
Fcgr1 | 1 | 115 | 91.4
Fcgr1 | 2 | 101 | 103
Fcgr1 | 3 | 89.4 | 51.1
Mdk | 1 | 27.9 | 40.9
Mdk | 2 | 87.2 | 67.7
Mdk | 3 | 28.3 | 74.2
Dnajc28 | 1 | 161 (active) | 61.6
Dnajc28 | 2 | 61.1 | 36.7
Dnajc28 | 3 | 72.2 | 80
Gsg1 | 1 | 96.9 | 90.7
Gsg1 | 2 | 121 (active) | 98.7
Gsg1 | 3 | 81.2 | 75.7
Ap5s1 | 1 | 50 | 58.6
Ap5s1 | 2 | 51.2 | 41.7
Ap5s1 | 3 | 77.3 | 87.4
Amer1 | 1 | 59.1 | 68.7
Amer1 | 2 | 59.9 | 49.5
Amer1 | 3 | 100 | 84.3
Wdr86 | 1 | 70.2 | 64.2
Wdr86 | 2 | 88.7 | 79
Wdr86 | 3 | 52.5 | 37.4
Or2b6 | 1 | 54.6 | 47.6
Or2b6 | 2 | 36.6 | 35.6
Or2b6 | 3 | 90.3 | 106

9 successive reagents from above, quoted:
target gene | siRNA no. | GFP, % of control | viability (ATP), % of control
Or4k6 | 1 | 55.2 | 90.3
Or4k6 | 2 | 93.7 | 88.9
Or4k6 | 3 | 99.6 | 61.2
Slc5a7 | 1 | 88.1 | 86.6
Slc5a7 | 2 | 63.2 | 64
Slc5a7 | 3 | 94.2 | 88.5
Pla2g1b | 1 | 70.3 | 49.3
Pla2g1b | 2 | 55.9 | 51.8
Pla2g1b | 3 | 73 | 74.3

The listing continues:
target gene | siRNA no. | GFP, % of control | viability (ATP), % of control
Cpt2 | 1 | 117 | 92.2
Cpt2 | 2 | 106 | 164
Cpt2 | 3 | 134 (active) | 95.9
Ndufa12 | 1 | 83.8 | 74.7
Ndufa12 | 2 | 62.1 | 62.2
Ndufa12 | 3 | 86.6 | 75.6
Or8b56 | 1 | 72.7 | 87.7
Or8b56 | 2 | 93.7 | 39
Or8b56 | 3 | 97.3 | 83.4
Fa2h | 1 | 54.6 | 73.9
Fa2h | 2 | 73.8 | 77.4
Fa2h | 3 | 71.6 | 64.3
C130073F10Rik | 1 | 54.9 | 60.3
C130073F10Rik | 2 | 69.7 | 77.7
C130073F10Rik | 3 | 142 (active) | 118
Higd1b | 1 | 95.8 | 100
Higd1b | 2 | 43.9 | 51.1
Higd1b | 3 | 98 | 67.7
Casp9 | 1 | 76.1 | 62
Casp9 | 2 | 41.5 | 47.8
Casp9 | 3 | 63.9 | 81.4
Pabpn1 | 1 | 119 | 99.7
Pabpn1 | 2 | 81.5 | 60.5
Fzd4 | 1 | 57.1 | 99.4
Fzd4 | 2 | 147 (active) | 94
Gdf9 | 1 | 53.9 | 72.6
Gdf9 | 2 | 25.5 | 26.1
Gdf9 | 3 | 88.9 | 74.2
Prr14l | 1 | 80.1 | 79.3
Prr14l | 2 | 68.1 | 80.9
Prr14l | 3 | 72.5 | 115
Riok1 | 1 | 79.5 | 69.8
Aldh3b3 | 1 | 67.4 | 66.7
Aldh3b3 | 2 | 99.5 | 57.6
Aldh3b3 | 3 | 92.6 | 94.3
Atg14 | 1 | 74.8 | 122
Atg14 | 2 | 96.9 | 96
Atg14 | 3 | 97.8 | 76.7
Exosc4 | 1 | 116 | 89.2
Exosc4 | 2 | 103 | 88.9
Exosc4 | 3 | 53.5 | 39
Hadha | 1 | 66 | 69.5
Hadha | 2 | 79.2 | 65.5
Hadha | 3 | 111 | 83.4
Pcdhgc5 | 1 | 103 | 55.3
Pcdhgc5 | 2 | 74.5 | 66.1
Pcdhgc5 | 3 | 34.9 | 33.6
